Results: patent publication US20210246187A1
Results are given in words; binding and its absence hold for the method and conditions named. Some results given as binding are weak or reduced against the parent protein; the word gives no strength. Where a sequence is shown, tags or fusion partners need not be part of it.

How the values were obtained:
[1] = target: T1, BTNL3+BTNL8 co-expressed on HEK293T cells (Flag-BTNL3+HA-BTNL8) (human) (UniProt Q6UXE8+Q6UX41); experiment: recombinant TCR experiments on BTNL3/8 over-expressing cells
T1 sequence (looked up) 1: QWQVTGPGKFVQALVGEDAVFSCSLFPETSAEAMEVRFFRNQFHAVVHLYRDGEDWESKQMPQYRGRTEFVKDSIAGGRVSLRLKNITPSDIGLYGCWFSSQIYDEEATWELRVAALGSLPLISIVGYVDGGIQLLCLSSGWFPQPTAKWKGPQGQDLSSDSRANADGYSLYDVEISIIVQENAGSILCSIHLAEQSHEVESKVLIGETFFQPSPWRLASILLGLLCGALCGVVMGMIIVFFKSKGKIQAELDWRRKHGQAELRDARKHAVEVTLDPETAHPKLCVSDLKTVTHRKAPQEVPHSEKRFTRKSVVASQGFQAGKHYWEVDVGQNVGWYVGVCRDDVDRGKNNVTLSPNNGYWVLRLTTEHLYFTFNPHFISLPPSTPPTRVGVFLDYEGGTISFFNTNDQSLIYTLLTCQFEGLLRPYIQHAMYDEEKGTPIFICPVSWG
T1 sequence (looked up) 2: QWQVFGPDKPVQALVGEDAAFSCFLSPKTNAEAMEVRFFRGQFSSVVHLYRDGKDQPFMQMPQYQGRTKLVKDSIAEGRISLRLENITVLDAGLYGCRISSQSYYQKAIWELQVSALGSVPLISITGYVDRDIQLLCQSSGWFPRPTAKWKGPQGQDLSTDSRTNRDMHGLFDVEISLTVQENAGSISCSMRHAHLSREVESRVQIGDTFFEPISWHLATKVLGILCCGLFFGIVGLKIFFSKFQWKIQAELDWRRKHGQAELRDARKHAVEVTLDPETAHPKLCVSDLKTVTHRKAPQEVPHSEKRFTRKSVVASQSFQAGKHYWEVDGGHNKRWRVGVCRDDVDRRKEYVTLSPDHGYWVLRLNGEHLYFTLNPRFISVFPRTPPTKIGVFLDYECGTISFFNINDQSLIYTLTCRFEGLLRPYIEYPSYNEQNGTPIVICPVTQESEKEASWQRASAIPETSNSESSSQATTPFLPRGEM

[2] = target: T1, BTNL3+BTNL8 co-expressed on HEK293T cells (Flag-BTNL3+HA-BTNL8) (human); experiment: staining of transduced cells with soluble TCR (FIG. 10 legend)
[3] = target: T1, BTNL3+BTNL8 co-expressed on HEK293T cells (Flag-BTNL3+HA-BTNL8) (human); experiment: recombinant TCR incubated with a cell line over-expressing BTNL3/8
[4] = target: T1, BTNL3+BTNL8 co-expressed on HEK293T cells (Flag-BTNL3+HA-BTNL8) (human); experiment: flow cytometry staining of HEK293T cells transduced with Flag-BTNL3+HA-BTNL8
[5] = target: T1, BTNL3+BTNL8 co-expressed on HEK293T cells (Flag-BTNL3+HA-BTNL8) (human); experiment: Image Cytometry of 293T.L3L8 cells incubated with soluble TCR pre-labeled with APC α-His antibody
[6] = target: T1, BTNL3+BTNL8 co-expressed on HEK293T cells (Flag-BTNL3+HA-BTNL8) (human); experiment: flow cytometry, transduced HEK293T cells stained with soluble His-tagged TCR then APC anti-His at 4° C.

binding [1]: binds | binding [2]: binds | binding [3]: binds | binding [4]: binds | binding [5]: binds | binding [6]: binds
B1: Vγ4/Vδ2 soluble TCR heterodimer (TCR, V domains shown)
V domain 1: SSNLEGRTKSVIRQTGSSAEITCDLAEGSTGYIHWYLHQEGKAPQRLLYYDSYTSSVVLESGISPGKYDTYGSTRKNLRMILRNLIENDSGVYYCATWDEKYYKKLFGSGTTLVVTE
V domain 2: AIELVPEHQTVPVSIGVPATLRCSMKGEAIGNYYINWYRKTQGNTITFIYREKDIYGPGFKDNFQGDIDIAKNLAVLKILAPSERDEGSYYCALGESLTRADKLIFGKGTRVTVEP
